# Measurements taken from PubChem BioAssay AID330 (DTP/NCI, 2004).
# The list is a part of this screen's results and no random one: it is rich in T/C values a quarter to a half above the control, in often repeated tests (any T/C) and in doses without a T/C. Other doses and runs of a compound stand elsewhere. T/C: endpoint of the treated group in % of that of the vehicle group. Some doses have a count of surviving animals in place of a T/C: the source files T/C as zero there, which appears to mark a toxic dose or a test without result, not a measured value. Some doses without a T/C left all or most animals alive at the check, yet need not have been tolerated: the source hardly ever lists a survival T/C far under the control, and the zero likely stands for such cases as well. Survivors were counted at the toxicity check, usually on the fifth day, unless a day is given; later deaths do not show. Schedules are NCI's codes, taken here to give the interval after Q, in days (D) or hours (H), and the number of doses after X. For survival time, the PubChem record calls one and a half times the control and up active, and a quarter to a half above the control has no call in these data; cut-offs in other NCI protocols can differ. Some entries hold several experiments; their values stand side by side, smallest first. Some T/C values are followed by the survivors on the day toxicity was checked, most often the fifth; where none is given, no animal had died by that day.
# Tested on: P388 leukemia ip, CD2F1 mice, survival T/C
# Experiment: NCI In Vivo Anticancer Drug Screen. Data for tumor model P388 Leukemia (intraperitoneal) in CD2F1 (CDF1) mice
# Details: T/C endpoint: median survival time, higher T/C = longer survival
# [1] = dose: 25.0 mg/kg/injection, schedule: Q01DX009 (ip), vehicle: suspension in saline
# [2] = dose: 100.0 mg/kg/injection, schedule: Q01DX005 (ip), vehicle: Klucel (hydroxypropylcellulose) (HPC)
# [3] = dose: 200.0 mg/kg/injection, schedule: Q01DX005 (ip), vehicle: Klucel (hydroxypropylcellulose) (HPC)
# [4] = dose: 240.0 mg/kg/injection, schedule: Q01DX005 (ip), vehicle: Klucel (hydroxypropylcellulose) (HPC)
# [5] = dose: 240.0 mg/kg/injection, schedule: Q01DX005 (ip), vehicle: saline with Tween-80
# [6] = dose: 50.0 mg/kg/injection, schedule: Q01DX009 (ip), vehicle: saline with Tween-80
smiles,measurement,setting,value
Oc1ccc(/C=N/Nc2nnc(N/N=C/c3ccc(O)cc3O)c3ccccc23)c(O)c1,T/C,"dose: 6.25 mg/kg/injection, schedule: Q01DX009 (ip), vehicle: suspension in saline",130 % of control [5 of 6 alive]
same,T/C,"dose: 12.5 mg/kg/injection, schedule: Q01DX009 (ip), vehicle: suspension in saline",129 [4 of 6 alive] and 130 % of control
same,survivor count,"dose: 25.0 mg/kg/injection, schedule: Q01DX009 (ip), vehicle: saline",5 of 6
same,T/C,[1],134 % of control [5 of 6 alive]
same,survivor count,[1],5 of 6
same,survivor count,"dose: 50.0 mg/kg/injection, schedule: Q01DX009 (ip), vehicle: suspension in saline",4 of 6
same,survivor count,"dose: 100.0 mg/kg/injection, schedule: Q01DX009 (ip), vehicle: suspension in saline",5 of 6
CC(=O)NC(CS)C(=O)O (stereo unspecified),T/C,"dose: 50.0 mg/kg/injection, schedule: Q01DX009 (ip), vehicle: saline",128 % of control
same,survivor count,"dose: 400.0 mg/kg/injection, schedule: Q01DX009 (ip), vehicle: saline",3 of 6
c1c[n+](CC2CO2)ccc1-c1cc[n+](CC2CO2)cc1 (stereo unspecified),T/C,"dose: 20.0 mg/kg/injection, schedule: Q01DX009 (ip), vehicle: Klucel (hydroxypropylcellulose) (HPC)",138 % of control
CCC[C@H]1N=C(OCC)N[C@@H]1CCC,survivor count,"dose: 25.0 mg/kg/injection, schedule: Q01DX005 (ip), vehicle: Klucel (hydroxypropylcellulose) (HPC)",3 of 6
same,survivor count,"dose: 50.0 mg/kg/injection, schedule: Q01DX005 (ip), vehicle: Klucel (hydroxypropylcellulose) (HPC)",0 of 6
same,survivor count,[2],0 of 6
same,survivor count,[3],0 of 6
CCOC(=O)NC(=N/C(=C/c1cccc(C)n1)c1ccccc1)c1ccccc1,survivor count,[4],6 of 6
CC(=O)Oc1ccccc1C(=O)OC1CCN(C(C)C)C1 (stereo unspecified),survivor count,"dose: 400.0 mg/kg/injection, schedule: Q04DX003 (ip), vehicle: saline",0 of 6
NC(=NCc1ccccc1)N/N=C\c1ccnc2ccccc12,survivor count,"dose: 120.0 mg/kg/injection, schedule: Q01DX005 (ip), vehicle: Klucel (hydroxypropylcellulose) (HPC)",1 of 6
same,survivor count,[4],0 of 6
CC1CC2OC(=O)C(CN3CC3)C2CC2(C)C(O)CC(O)C12 (stereo unspecified),T/C,"dose: 100.0 mg/kg/injection, schedule: Q04DX002 (ip), vehicle: saline",128 % of control
same,survivor count,"dose: 200.0 mg/kg/injection, schedule: Q04DX002 (ip), vehicle: saline with Tween-80",0 of 6
same,survivor count,"dose: 200.0 mg/kg/injection, schedule: Q04DX002 (ip), vehicle: saline",0 of 6
same,survivor count,"dose: 400.0 mg/kg/injection, schedule: Q04DX002 (ip), vehicle: saline",0 of 6
CCN(CC)c1ccc(C(=N)c2ccc(N(CC)CC)cc2)cc1,survivor count,[2],0 of 5
same,survivor count,[3],0 of 5
CCOP(=O)(O)C1CCCC(C)[N-]1.CCOP(=O)(O)C1CCCC(C)[N-]1.[Co+2] (stereo unspecified),survivor count,"dose: 200.0 mg/kg/injection, schedule: Q04DX003 (ip), vehicle: Klucel (hydroxypropylcellulose) (HPC)",4 of 6
same,survivor count,"dose: 400.0 mg/kg/injection, schedule: Q04DX003 (ip), vehicle: Klucel (hydroxypropylcellulose) (HPC)",0 of 6
Oc1ccc(O)c2nc3ccccc3nc12,survivor count,"dose: 12.5 mg/kg/injection, schedule: Q01DX009 (ip), vehicle: distilled water + Tween-80",5 of 6
same,survivor count,"dose: 25.0 mg/kg/injection, schedule: Q01DX009 (ip), vehicle: distilled water + Tween-80",0 of 6
same,survivor count,"dose: 50.0 mg/kg/injection, schedule: Q01DX009 (ip), vehicle: distilled water + Tween-80",0 of 6
same,survivor count,"dose: 100.0 mg/kg/injection, schedule: Q01DX009 (ip), vehicle: distilled water + Tween-80",0 of 6
C(=N\Nc1nnc2c(n1)[nH]c1ccccc12)/c1cccnc1,survivor count,"dose: 50.0 mg/kg/injection, schedule: Q01DX005 (ip), vehicle: Klucel + Tween-80",6 of 6
same,survivor count,"dose: 100.0 mg/kg/injection, schedule: Q01DX005 (ip), vehicle: Klucel + Tween-80",6 of 6
same,survivor count,"dose: 200.0 mg/kg/injection, schedule: Q01DX005 (ip), vehicle: Klucel + Tween-80",4 of 6
CCO/C=C1/N=C(c2ccc(Cl)cc2)OC1=O,survivor count,"dose: 120.0 mg/kg/injection, schedule: Q01DX005 (ip), vehicle: saline with Tween-80",4 of 6
same,survivor count,[5],0 of 6
C=CC(=NC(C)C)N(C)c1ccccc1,survivor count,[6],0 of 6
same,survivor count,"dose: 100.0 mg/kg/injection, schedule: Q01DX009 (ip), vehicle: saline with Tween-80",0 of 6
same,survivor count,"dose: 200.0 mg/kg/injection, schedule: Q01DX009 (ip), vehicle: saline with Tween-80",0 of 6
C#CCC(C(C)=O)C(C)=O.[C-]#[O+].[C-]#[O+].[C-]#[O+].[C-]#[O+].[C-]#[O+].[C-]#[O+].[Co].[Co],survivor count,[2],0 of 6
same,survivor count,[3],0 of 6
c1ccc(C2=C([P+](c3ccccc3)(c3ccccc3)c3ccccc3)CCN2)cc1,T/C,"dose: 1.56 mg/kg/injection, schedule: Q01DX009 (ip), vehicle: saline with Tween-80",129 % of control
same,T/C,"dose: 3.12 mg/kg/injection, schedule: Q01DX009 (ip), vehicle: saline with Tween-80",129 % of control
same,T/C,"dose: 6.25 mg/kg/injection, schedule: Q01DX009 (ip), vehicle: saline with Tween-80",133 % of control
same,T/C,"dose: 9.38 mg/kg/injection, schedule: Q01DX009 (ip), vehicle: saline with Tween-80",129 % of control [4 of 6 alive]
same,survivor count,"dose: 12.5 mg/kg/injection, schedule: Q01DX009 (ip), vehicle: saline with Tween-80",6 of 6
same,survivor count,"dose: 25.0 mg/kg/injection, schedule: Q01DX009 (ip), vehicle: saline with Tween-80",3 of 6
same,survivor count,[6],0 of 6
CC(C)NC(=O)c1ccc(CBr)cc1,survivor count,"dose: 25.0 mg/kg/injection, schedule: Q01DX009 (ip), vehicle: other",6 of 6
same,survivor count,"dose: 50.0 mg/kg/injection, schedule: Q01DX009 (ip), vehicle: other",4 of 6
same,survivor count,"dose: 100.0 mg/kg/injection, schedule: Q01DX009 (ip), vehicle: other",2 of 6
same,survivor count,"dose: 200.0 mg/kg/injection, schedule: Q01DX009 (ip), vehicle: other",0 of 6
same,survivor count,"dose: 400.0 mg/kg/injection, schedule: Q01DX009 (ip), vehicle: other",0 of 6
C[Si](C)(C)CSCC#N,survivor count,"dose: 400.0 mg/kg/injection, schedule: Q01DX001 (ip), vehicle: saline with Tween-80",0 of 6
CCCCCCn1c(=O)cc2n(c1=O)CCC2,survivor count,[5],0 of 6
CC(C)CCCCCCCCCCCCC(=O)NCC(=O)NC1C(CO)OC(Nc2ncnc3nc[nH]c23)C(O)C1O (stereo unspecified),T/C,"dose: 0.25 mg/kg/injection, schedule: Q01DX009 (ip), vehicle: other",125 and 142 % of control
same,T/C,"dose: 0.5 mg/kg/injection, schedule: Q01DX009 (ip), vehicle: other",137 % of control
same,T/C,"dose: 1.0 mg/kg/injection, schedule: Q01DX009 (ip), vehicle: other",142 % of control
same,survivor count,"dose: 2.0 mg/kg/injection, schedule: Q01DX009 (ip), vehicle: other",6 of 6
same,survivor count,"dose: 4.0 mg/kg/injection, schedule: Q01DX009 (ip), vehicle: other",6 of 6
CN=C(N)N/N=C/COc1ccc(C)cc1,survivor count,"dose: 240.0 mg/kg/injection, schedule: Q01DX005 (ip), vehicle: saline",0 of 6
COc1ccc2c(c1OC)N(C)CC1=C2OC(C)(C)C2C1CC1(C)CC2c2c(c3ccc(OC)c(OC)c3n(C)c2=O)O1 (stereo unspecified),survivor count,[2],6 of 6
CN=C(NCCCOC)c1ccc(NC(=O)c2ccc(C(=O)Nc3ccc(C(=NC)NCCCOC)cc3)cc2)cc1,survivor count,"dose: 100.0 mg/kg/injection, schedule: Q04DX003 (ip), vehicle: saline with Tween-80",0 of 6
same,survivor count,"dose: 200.0 mg/kg/injection, schedule: Q04DX003 (ip), vehicle: saline with Tween-80",0 of 6
same,survivor count,"dose: 400.0 mg/kg/injection, schedule: Q04DX003 (ip), vehicle: saline with Tween-80",0 of 6
O=C(NCCSCCSCCSCCNC(=O)Oc1ccccc1)Oc1ccccc1,survivor count,"dose: 400.0 mg/kg/injection, schedule: Q01DX001 (ip), vehicle: Klucel (hydroxypropylcellulose) (HPC)",6 of 6
CNC1=CC(=O)c2c(c3cc(O)ccc3n2C)C1=O,survivor count,"dose: 100.0 mg/kg/injection, schedule: Q01DX009 (ip), vehicle: saline",5 of 6
